Measured values reported in PMC12691643.
These are yes or no findings as the source states them, for the method shown. In cells and extracts the contact can be indirect. A yes stands for co-enrichment or nearness to the bait. Other partners may have been found.

Molecular target: TgWIP^WT, wild-type Toxoplasma WAVE complex-interacting protein with a C-terminal HA tag (Toxoplasma gondii)
Assay: affinity purification with mass spectrometry; HA-tagged TgWIP variants pulled down by the HA tag from lysates of DC2.4 cells infected 4 h at MOI 7; host partners by mass spectrometry; values are negative fold changes in peptide counts of the mutant immunoprecipitations relative to TgWIP^WT

Row | Binder | binding
1 | Sh3rf1, endogenous in murine DC2.4 cells (protein, UniProt Q69ZI1 1-892) MDESALLDLLECPVCLERLDASAKVLPCQHTFCKRCLLGIVGSRNELRCPECRTLVGSGVDELPSNILLVRLLDGIKQRPWKPGPGGGGGTTCTNTLRAQGSTVVNCGSKDLQSSQCGQQPRVQAWSPPVRGIPQLPCAKALYNYEGKEPGDLKFSKGDIIILRRQVDENWYHGEVSGVHGFFPTNFVQIIKPLPQPPPQCKALYDFEVKDKEADKDCLPFAKDDVLTVIRRVDENWAEGMLADKIGIFPISYVEFNSAAKQLIEWDKPPVPGVDTAECPSATAQSTSASKHPDTKKNTRKRHSFTSLTMANKSSQGSQNRHSMEISPPVLISSSNPTAAARISELSGLSCSAPSQVHISTTGLIVTPPPSSPVTTGPAFTFPSDVPYQAALGSMNPPLPPPPLLAATVLASTPSGATAAVAAAAAAAAAAGMGPRPVMGSSEQIAHLRPQTRPSVYVAIYPYTPRKEDELELRKGEMFLVFERCQDGWYKGTSMHTSKIGVFPGNYVAPVTRAVTNASQAKVSMSTAGQASRGVTMVSPSTAGGPTQKPQGNGVAGNPSVVPTAVVSAAHIQTSPQAKVLLHMSGQMTVNQARNAVRTVAAHSQERPTAAVTPIQVQNAACLGPASVGLPHHSLASQPLPPMAGPAAHGAAVSISRTNAPMACAAGASLASPNMTSAMLETEPSGRTVTILPGLPTSPESAASACGNSSAGKPDKDSKKEKKGLLKLLSGASTKRKPRVSPPASPTLDVELGAGEAPLQGAVGPELPLGGSHGRVGSCPTDGDGPVAAGTAALAQDAFHRKTSSLDSAVPIAPPPRQACSSLGPVMNEARPVVCERHRVVVSYPPQSEAELELKEGDIVFVHKKREDGWFKGTLQRNGKTGLFPGSFVENI | binds
2 | Brk1 (Hspc300), endogenous in murine DC2.4 cells (protein, UniProt Q91VR8 1-75) MAGQEDPVQREIHQDWANREYIEIITSSIKKISDFLNSFDMSCRSRLATLNEKLTALERRIEYIEARVTKGETLT | binds
3 | Nckap1l (Hem1), endogenous in murine DC2.4 cells (protein, UniProt Q8K1X4 1-1134) MSLTSAYQLKLAEKLTILNDRGQGVLIRMYNIKKTCSDSKSKPPFLLEKSMESCLKYINKKFPNIDVRNSTQHLGPVHREKAEIIRFLTNYYQSFVDVMEFRDHVYELLNTIDACQCHFDINLNFDFTRSYLDLIVTYTSVILLLSRIEDRRILIGMYNCAHEMLHGHSDPSFARLGQMVLEYDHPLKKLTEEFGPHTKAVSGALLSLHFLFVRRNQGAEQWRSAQLLSLISSPPAMINPANSDTMACEYLSVEVMERWIIIGFLLCHGCLNSNSQCQKLWKLCLEGSLYITLIREDVLQVHKVTEDLFSSLKGYSKRVADIKESKEHAITNSGQFHCQRRQFLRTAVKELETVLNDEPGLLGPKALFAFMALSFIRDEVTWLVRHTENVTKTKTPEDYADSSIAELLFLLEEIRALVRRHIKVIQQYHLQYLARFDVLVLSDIIQNLSVCPEEESVIMSSFVSILSSLNLKQVDNEEKFDFSGLRLDWFRLQAYTSVSKAPLHLHENPDLAKVMNLIIFHSQMLDSVEKMLVETSDLSTFCFHLRTFEKMFATTLEEPTMLRYTIAFPLICAHFVHCVHEMCPEEYPHLKNHGLHHCNSFLEDLAKQTSNCVLEICAEQRNLNEQLLPKHCATTISKAKNKKSMKQRQAPRKGEPERDKPGAESHRKNRSLVTNMDKLHLNLTELALAMNHVHSFSVFEHTIFPSEYLSSHLEARLNRAIVTLAGYNATTQEILRPSELLAGVKAYISFIQSLAQFLGADASRIVRNALLQQTQPLDSSGEQTVTTLYTNWYLESLLRQASSGAIVLSPAMQAFISLPRDGEQNFSAEEFSDISEMRALAEILGPYGMKFLSENLMWHVTSQIVELKKLVVENMDILVQIRSNFSKPELMASLLPQLTGAENVLKRMTIIGVILSFRAMAQEGLQEVFSAHCPFLMGPIECLKEFVTPDTDIKVTLSVFELACAAGVSCDIDPALVAAIANLKADNSSPEEEYKVACLLLIFLAVSLPLLATDPSSFFSIEKDGYNNNIHCLTKAIIQVSAALFTLYNKNIETHLKEFLVVASVSLLQLGQETDKLKTRNRESISLLMRLVVEESPFLTLDMLESCFPYVLLRNAYREVSRAFYLNRLPASSH | binds
4 | Abi3, endogenous in murine DC2.4 cells (protein, UniProt Q8BYZ1 1-367) MAELQQLQQLQEFDIPTGREALRGNHSALLRVANYCEDNYLQATDKRKALEETMAFTTQALASVAYQVGNLAGHTLRMLDLQGAALRQVEAKMSTLGQMVNMHMEKVARREIGTLATVVRLPSNQKVIPPESLPSLTPYHRKPLNFACLDDIGHGVKDLSTQLSRTGTLSRKSIKAPATPVSATLGRPPRIPEPVQLPAVPDGKLSAASSASSLASAGSAEGASGIPQSKGQVAPATPPPPPVAPVTPPPPPLSAEVFLPPPPLEVSQPPLEAELPLPPPPALEGDELGLLPPPPPGFGPDEPSWVPASYLEKVVTLYPYTRQKDNELSFSEGTVICVTRRYSDGWCEGVSSEGTGFFPGNYVEPSC | binds
5 | Nostrin, endogenous in murine DC2.4 cells (protein, UniProt Q6WKZ7 1-506) MRDPLTDCSYNKVYKSLKEFAQHGDNFCKQITSVLQQRANLEISYAKGLQKLAVRLSKALQSTKKNCLSTAWAWASESMKSAADLHQKLGKAIELEAIKPTHQVLSMQEKKRKSLDNEVEKTANLVINNWNQQIKAKKKLMMSTKKHEALFHLVESSKQSLTQKEKQKLLNKLKKSTEKLEKEDESYYQKNMAGYSTRLKWESTLENCYKSMLELEKERIQLLCNNLNQYSQHISLFGQTLTTCHTQIHCAISKVDVEKDIQALMEETAILSIENKSELLLADYFEEDPKNPMDKERRKSLLKPKLGRLQRDIEKASRDKEGLERKLKALASSSSFSDAKSQKDMETLMDENSLKLDLLQANSYKLSSVLADLEQRPKPCHPCSTCIFKWKEKEHSHTYVKISRPLLTKRLEKAESKAPAGGQNNPSSSPSGSTVSQASKHLCKALYTFQARQDDELNLEKGDIVTVHEKKEEGWWFGSLKGKRGHFPAAYVEELPPKAGNTATQA | binds
6 | Git1, endogenous in murine DC2.4 cells (protein, UniProt Q68FF6 1-770) MSRKGPRAEVCADCSAPDPGWASISRGVLVCDECCSVHRSLGRHISIVKHLRHSAWPPTLLQMVHTLASNGANSIWEHSLLDPAQVQSGRRKANPQDKVHPIKSEFIRAKYQMLAFVHKLPCRDDDGVTAKDLSKQLHSSVRTGNLETCLRLLSLGAQANFFHPEKGTTPLHVAAKAGQTLQAELLVVYGADPGSPDVNGRTPIDYARQAGHHELAERLVECQYELTDRLAFYLCGRKPDHKNGHYIIPQMADRSRQKCMSQSLDLSELAKAAKKKLQALSNRLFEELAMDVYDEVDRRENDAVWLATQNHSTLVTERSAVPFLPVNPEYSATRNQGRQKLARFNAREFATLIIDILSEAKRRQQGKSLSSPTDNLELSARSQSELDDQHDYDSVASDEDTDQEPLPSAGATRNNRARSMDSSDLSDGAVTLQEYLELKKALATSEAKVQQLMKVNSSLSDELRRLQREIHKLQAENLQLRQPPGPVPPPSLPSERAEHTLMGPGGSTHRRDRQAFSMYEPGSALKPFGGTPGDELATRLQPFHSTELEDDAIYSVHVPAGLYRIRKGVSASSVPFTPSSPLLSCSQEGSRHASKLSRHGSGADSDYENTQSGDPLLGLEGKRFLELSKEDELHPELESLDGDLDPGLPSTEDVILKTEQVTKNIQELLRAAQEFKHDSFVPCSEKIHLAVTEMASLFPKRPALEPVRSSLRLLNASAYRLQSECRKTVPPEPGAPVDFQLLTQQVIQCAYDIAKAAKQLVTITTREKKQ | binds
7 | Arhgef7, endogenous in murine DC2.4 cells (protein, UniProt Q9ES28 1-862) MNSAEQTVTWLITLGVLESPKKTISDPEVFLQASLKDGVVLCRLLERLLPGTIEKVYPEPRNESECLSNIREFLRACGASLRLETFDANDLYQGQNFNKVLSSLVTLNKVTADIGLGSDSVCARPSSHRIKSFDSLGSQSSHSRTSKLLQSQYRSLDMTDNTNSQLVVRAKFNFQQTNEDELSFSKGDVIHVTRVEEGGWWEGTHNGRTGWFPSNYVREIKPSEKPVSPKSGTLKSPPKGFDTTAINKSYYNVVLQNILETEHEYSKELQSVLSTYLRPLQTSDKLSSANTSYLMGNLEEISSFQQVLVQSLEECTKSPEAQQRVGGCFLSLMPQMRTLYLAYCANHPSAVSVLTEHSEDLGEFMETKGASSPGILVLTTGLSKPFMRLDKYPTLLKELERHMEDYHPDRQDIQKSMTAFKNLSAQCQEVRKRKELELQILTEPIRSWEGDDIKTLGSVTYMSQVTIQCAGSEEKNERYLLLFPNLLLMLSASPRMSGFIYQGKLPTTGMTITKLEDSENHRNAFEISGSMIERILVSCTSQQDLHEWVEHLQKQTKVTSVSNPTIKPHSVPSHTLPSHPLTPSSKHADSKPVALTPAYHTLPHPSHHGTPHTTISWGPLEPPKTPKPWSLSCLRPAPPLRPSAALCYKEDLSKSPKTMKKLLPKRKPERKPSDEEFAVRKSTAALEEDAQILKVIEAYCTSAKTRQTLNSTWQGTDLMHNHVLADDDQSSLDSLGRRSSLSRLEPSDLSEDSEYDSIWTAHSYRMGSASRSRKESAPQVLLPEEEKIIVEETKSNGQTVIEEKSLVDTVYALKDEVQELRQDNKKMKKSLEEEQRARKDLEKLVRKVLKNMNDPAWDETNL | binds
8 | Git2, endogenous in murine DC2.4 cells (protein, UniProt Q9JLQ2 1-708) MSKRLRSSDVCADCNGPDPSWASVNRGTFICDECCSVHRSLGRHISQVRHLKHTAWPPTLLQMVETLYNNGANSIWEHSLLDPASIMSGRRKANPQDKVHPNKAEFIRAKYQMLAFVHRLPCREDDSVTAKDLSKQLHSSVRTGNLETCLRLLSLGAQANFFHPEKGSTPLHVASKAGQILQAELLAVYGADPGTQDSSGKTPVDYARQGGHHELAERLIEIQYELTDRLAFYLCGRKPDHKSGQHFLIPQRADSLDLSELAKAAKKKLQSLSNHLFEELAMDVYDEVDRRETDAVWLATQNHSTLVTETTVVPFLPVNPEYSSTRNQGRQKLARFNAHEFATLVIDILSDAKRRQQGSPLSRSKDNVELILRTVSTQHSTESQDNDQPDYDSVASDEDTDVETRASKANRQKLQTLQSENSSLRRQATASACQVQTGSDHKDTASHSSLKRRPSARGSRPMSMYETGSGQKPYLPMGEASHPEESRTRLQPFPTHIGRSALVTSSSSLPSFPSTLSWSRDESARRASRLEKQNSTPESDYDNTACDPEPDDTGSTRKGRQRSMLWQGDGLLPDTAEPHSVPSPTLPSTEDVIRKTEQITKNIQELLRAAQENKHDSYIPCSERIHVAVTEMAALFPKKPKSDTVRTSLRLLTSSAYRLQSECRKALPGDSSLPTDVQLVTQQVIQCAYDIAKAAKQLVTITTKENSS | binds
